Laboratory results: patent publication US12540174
Results are given in words; binding and its absence hold for the method and conditions named. Some binding calls cover weakened binding; strength is not graded here.

Sequences of proteins named here, by UniProt entry; tags and fusion partners are left off. Residues count along the entry.
UniProt P08670, residues 2-466: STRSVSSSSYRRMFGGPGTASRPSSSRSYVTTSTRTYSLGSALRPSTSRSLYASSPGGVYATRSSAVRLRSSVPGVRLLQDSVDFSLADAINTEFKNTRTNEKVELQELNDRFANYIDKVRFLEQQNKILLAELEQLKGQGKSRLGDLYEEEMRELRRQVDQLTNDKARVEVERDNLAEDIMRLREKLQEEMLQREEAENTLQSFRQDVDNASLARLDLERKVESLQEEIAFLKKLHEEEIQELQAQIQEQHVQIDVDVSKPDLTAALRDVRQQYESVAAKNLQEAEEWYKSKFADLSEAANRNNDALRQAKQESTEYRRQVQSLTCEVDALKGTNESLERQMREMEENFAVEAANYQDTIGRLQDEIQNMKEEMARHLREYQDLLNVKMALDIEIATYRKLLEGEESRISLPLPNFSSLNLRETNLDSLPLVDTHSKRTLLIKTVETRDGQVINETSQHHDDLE

Tests used:
[1] = biological target: vimentin on the cell surface of U251 glioma cells (UniProt P08670); test: flow cytometry on glioma cells (U251), pritumumab 160 nM, Ax488 FITC-A channel
[2] = biological target: vimentin on the cell surface of U251 glioma cells (UniProt P08670); test: flow cytometry on U251 glioma cells, Ax488 FITC-A channel; antibody concentration not given for this figure
[3] = biological target: vimentin on the cell surface of U251 glioma cells (UniProt P08670); test: flow cytometry on U251 glioma cells

Measured: binding

B1: pritumumab (antibody, human IgG1, kappa, V domains shown)
VH: EVQLLESGGDLVQPGGSLRLSCAASGFTFSNYAMSWVRQAPGKGLEWVSAITPSGGSTNYADSVKGRFTISRDNSQNTLYLQMNSLRVEDTAVYICGRVPYRSTWYPLYWGQGTLVTVSS
VL: DIQMTQSPSSLSASVGDRVTITCRASQDISNYLAWFQQKPGKAPKSLIYAASSLHSKVPTQFSGSGSGTDFTLTISSLQPEDFATYYCLQYSTYPITFGGGTKVEIKR
binds: [1] | [2] | [3]
